Measurements reported in PubChem BioAssay AID1259308 (NCATS, 2017).
This is an unselected part of about 59,000 deposited reagents. About 1,510 of them (2.6%) were called active. 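Calls use total luciferase alone and ignore viability, so some active siRNAs may act by altering cell number.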 Reagents against one gene are numbered here. Not all columns of the deposit are shown.

Screen: 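Genes whose loss raises luciferase production in HEK293 cells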 (primary screen)
System: human HEK293 embryonic kidney cells stably expressing firefly luciferase (HEK-CMV-Luc2-Hygro)
Reagent: single siRNA against human genes, 0.8 pmol siRNA per well
Duration: 72 h
Measurement: 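Luciferase light (ONE-Glo) measured on one replicate plate set and viability (CellTiter-Glo) on the other, scaled to a negative control siRNA, with robust z-scores and luciferase per cell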
Reading the numbers: total luciferase, z-score and total luciferase, % of control: higher = more reporter protein produced
Hit rule: 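An siRNA counts as active if its total luciferase robust z-score exceeds 3; genes with two or more such siRNAs out of three were retested with fresh siRNAs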
Calls: active = raised luciferase; inactive = no rise

Against EPS15 #1 the deposit lists total luciferase, z-score -0.444; total luciferase, % of control 73; inactive.
With knock-down of EPS15 #2, the record shows total luciferase, z-score 0.133; total luciferase, % of control 84.5; inactive.
After knock-down of EPS15 #3, the record shows total luciferase, z-score 0.918; total luciferase, % of control 100; inactive.
With knock-down of MAGEA6 #1 the results were total luciferase, z-score -0.392; total luciferase, % of control 74.1; inactive.
With knock-down of MAGEA6 #2, the screen gave total luciferase, z-score 2.62; total luciferase, % of control 134; inactive.
MAGEA6 #3 showed total luciferase, z-score -0.358; total luciferase, % of control 74.8; inactive.
VWA2 #1 gave total luciferase, z-score 0.47; total luciferase, % of control 91.2; inactive.
Depletion of VWA2 #2 came out at: total luciferase, z-score 0.00739; total luciferase, % of control 82; inactive.
VWA2 #3 gave total luciferase, z-score -1.07; total luciferase, % of control 60.6; inactive.
Against UCN #1 the deposit lists total luciferase, z-score -0.349; total luciferase, % of control 74.9; inactive.
UCN #2 showed total luciferase, z-score -0.843; total luciferase, % of control 65.1; inactive.
UCN #3 showed total luciferase, z-score -1.27; total luciferase, % of control 56.7; inactive.
Against SIGLECL1 #1 the deposit lists total luciferase, z-score -0.384; total luciferase, % of control 74.3; inactive.
With knock-down of SIGLECL1 #2 the results were total luciferase, z-score -1.91; total luciferase, % of control 43.9; inactive.
Against SIGLECL1 #3, the values are total luciferase, z-score 0.415; total luciferase, % of control 90.1; inactive.
With knock-down of SRRD #1, the record shows total luciferase, z-score 0.959; total luciferase, % of control 101; inactive.
Silencing of SRRD #2 came out at: total luciferase, z-score -0.959; total luciferase, % of control 62.8; inactive.
SRRD #3 scored total luciferase, z-score 0.543; total luciferase, % of control 92.7; inactive.
DQX1 #1 showed total luciferase, z-score 0.175; total luciferase, % of control 85.4; inactive.
With knock-down of DQX1 #2, the record shows total luciferase, z-score -0.619; total luciferase, % of control 69.6; inactive.
After knock-down of DQX1 #3, the screen gave total luciferase, z-score 3.16; total luciferase, % of control 145; active.
Depletion of TOR2A #1 resulted in: total luciferase, z-score -1.66; total luciferase, % of control 48.8; inactive.
Depletion of TOR2A #2 came out at: total luciferase, z-score -0.727; total luciferase, % of control 67.4; inactive.
For TOR2A #3 the deposit lists total luciferase, z-score 0.437; total luciferase, % of control 90.6; inactive.

4 entries from above, ordered by “total luciferase, % of control”, descending.
MAGEA6 #2 — total luciferase, z-score: 2.62; total luciferase, % of control: 134; Call: inactive
EPS15 #3 — total luciferase, z-score: 0.918; total luciferase, % of control: 100; Call: inactive
EPS15 #2 — total luciferase, z-score: 0.133; total luciferase, % of control: 84.5; Call: inactive
MAGEA6 #1 — total luciferase, z-score: -0.392; total luciferase, % of control: 74.1; Call: inactive

The results go on.
LOC150935 #1 scored total luciferase, z-score -1.46; total luciferase, % of control 52.9; inactive.
With knock-down of LOC150935 #2, the screen gave total luciferase, z-score 0.387; total luciferase, % of control 89.6; inactive.
After knock-down of LOC150935 #3, the screen gave total luciferase, z-score 1.5; total luciferase, % of control 112; inactive.
RBBP6 #1 scored total luciferase, z-score -1.46; total luciferase, % of control 52.9; inactive.
Silencing of RBBP6 #2 resulted in: total luciferase, z-score 0.28; total luciferase, % of control 87.5; inactive.
With knock-down of RBBP6 #3 the results were total luciferase, z-score -1.69; total luciferase, % of control 48.2; inactive.
Against VN1R4 #1, the values are total luciferase, z-score 2.52; total luciferase, % of control 132; inactive.
Depletion of VN1R4 #2 gave: total luciferase, z-score -1.74; total luciferase, % of control 47.2; inactive.
VN1R4 #3 scored total luciferase, z-score 0.567; total luciferase, % of control 93.2; inactive.
AURKC #1 showed total luciferase, z-score 0.674; total luciferase, % of control 95.3; inactive.
For AURKC #2 the deposit lists total luciferase, z-score -0.0423; total luciferase, % of control 81; inactive.
Against AURKC #3, the values are total luciferase, z-score -0.588; total luciferase, % of control 70.2; inactive.
For FAM86C1P #1, the values are total luciferase, z-score -0.73; total luciferase, % of control 67.4; inactive.
Against FAM86C1P #2, the values are total luciferase, z-score 0.311; total luciferase, % of control 88.1; inactive.
Against FAM86C1P #3, the values are total luciferase, z-score -0.883; total luciferase, % of control 64.3; inactive.
Silencing of MEOX1 #1 gave: total luciferase, z-score -0.0721; total luciferase, % of control 80.5; inactive.
Depletion of MEOX1 #2 resulted in: total luciferase, z-score -0.802; total luciferase, % of control 65.9; inactive.
Silencing of MEOX1 #3 came out at: total luciferase, z-score 2.88; total luciferase, % of control 139; inactive.
